These are yes or no findings as the source states them, for the method shown. A result given as binding can be weak or reduced; the word gives no strength.

Assay [1] addresses T1, wild-type rTpiA (recombinant Streptococcus pneumoniae D39 triosephosphate isomerase) (Streptococcus pneumoniae D39) (UniProt Q04JH4).
T1 sequence: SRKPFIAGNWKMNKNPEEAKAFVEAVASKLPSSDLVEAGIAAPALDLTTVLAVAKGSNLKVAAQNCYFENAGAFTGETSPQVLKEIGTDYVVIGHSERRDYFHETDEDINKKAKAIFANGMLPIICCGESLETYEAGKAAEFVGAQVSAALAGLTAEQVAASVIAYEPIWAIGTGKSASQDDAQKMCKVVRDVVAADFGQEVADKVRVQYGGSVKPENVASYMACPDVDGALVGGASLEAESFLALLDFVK
In words: far-Western, overlay or dot blot; rTpiA (200 ng) separated by SDS-PAGE and transferred onto PVDF; membrane blocked with 5% BSA in TBST, incubated 90 min with 30 µg/mL plasminogen at 25 °C; bound plasminogen probed with rabbit polyclonal anti-plasminogen and HRP secondary antibody; both purified.

For assay [2], the target named is T1, wild-type rTpiA (recombinant Streptococcus pneumoniae D39 triosephosphate isomerase) (Streptococcus pneumoniae D39). In words: ELISA; rTpiA coated at 1 µg/well overnight at 4 °C; blocked with 1% skim milk in PBST; 1 µg/well human plasminogen, 37 °C, 1 h; detected with anti-plasminogen antibody and AP-linked secondary antibody, A405; both purified. In general terms: In an ELISA, binding on a coated surface is turned into a signal by an enzyme label.

On to human plasma plasminogen, for which the binding entry in assay [1] and in assay [2] was “binds” each time.

(Values after article PMC10221034 (2023).)
